We go through 3 substances from publication PMC5691083.

Chains of the proteins cited; added tags and fusions are not shown.
UniProt Q15796: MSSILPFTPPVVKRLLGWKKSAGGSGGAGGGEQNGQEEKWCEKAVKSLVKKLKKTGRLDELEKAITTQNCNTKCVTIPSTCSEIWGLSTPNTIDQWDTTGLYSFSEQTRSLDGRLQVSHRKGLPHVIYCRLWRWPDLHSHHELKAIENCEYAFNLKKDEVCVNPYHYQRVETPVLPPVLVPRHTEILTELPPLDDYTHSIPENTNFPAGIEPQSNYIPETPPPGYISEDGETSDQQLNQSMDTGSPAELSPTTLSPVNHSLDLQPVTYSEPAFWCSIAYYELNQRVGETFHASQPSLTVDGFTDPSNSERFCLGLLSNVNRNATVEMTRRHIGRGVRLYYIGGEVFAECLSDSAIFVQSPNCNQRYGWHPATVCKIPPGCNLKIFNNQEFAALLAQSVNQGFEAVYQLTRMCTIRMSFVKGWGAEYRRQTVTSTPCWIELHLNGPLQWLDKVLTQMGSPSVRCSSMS
UniProt P84022: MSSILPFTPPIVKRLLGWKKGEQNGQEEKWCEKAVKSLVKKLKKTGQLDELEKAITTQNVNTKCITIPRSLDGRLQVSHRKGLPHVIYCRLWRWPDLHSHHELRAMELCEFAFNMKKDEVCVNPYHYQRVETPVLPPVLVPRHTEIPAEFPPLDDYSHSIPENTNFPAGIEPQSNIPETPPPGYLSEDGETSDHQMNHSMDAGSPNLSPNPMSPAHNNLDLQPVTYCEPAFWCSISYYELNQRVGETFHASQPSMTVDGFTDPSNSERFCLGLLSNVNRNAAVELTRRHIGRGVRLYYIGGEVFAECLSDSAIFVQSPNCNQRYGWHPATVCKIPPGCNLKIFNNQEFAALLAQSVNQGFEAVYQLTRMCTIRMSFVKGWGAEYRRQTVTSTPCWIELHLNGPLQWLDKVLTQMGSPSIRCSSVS
UniProt Q13485: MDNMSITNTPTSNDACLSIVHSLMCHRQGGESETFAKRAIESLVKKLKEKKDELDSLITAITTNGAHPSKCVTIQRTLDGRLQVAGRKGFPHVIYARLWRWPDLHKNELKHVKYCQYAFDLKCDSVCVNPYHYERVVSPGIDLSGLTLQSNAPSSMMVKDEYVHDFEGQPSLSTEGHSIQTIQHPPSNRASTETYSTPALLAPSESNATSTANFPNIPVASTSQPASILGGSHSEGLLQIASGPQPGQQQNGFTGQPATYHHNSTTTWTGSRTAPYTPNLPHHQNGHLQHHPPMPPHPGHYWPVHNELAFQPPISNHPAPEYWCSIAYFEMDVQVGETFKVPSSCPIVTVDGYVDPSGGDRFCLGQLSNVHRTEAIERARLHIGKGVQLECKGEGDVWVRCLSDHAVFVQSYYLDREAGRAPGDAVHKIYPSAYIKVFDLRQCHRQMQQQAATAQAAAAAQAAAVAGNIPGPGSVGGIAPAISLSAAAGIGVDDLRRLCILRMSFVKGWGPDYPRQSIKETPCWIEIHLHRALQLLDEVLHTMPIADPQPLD

These are yes or no findings as the source states them, for the method shown. Binding seen in cells or lysates may run through a third protein. Some results given as binding are weak or reduced against the parent protein; the word gives no strength. Sequences can lack the tags named with a protein.

In this assay the target is T1, myc-RELB (UniProt Q01201).
T1 sequence: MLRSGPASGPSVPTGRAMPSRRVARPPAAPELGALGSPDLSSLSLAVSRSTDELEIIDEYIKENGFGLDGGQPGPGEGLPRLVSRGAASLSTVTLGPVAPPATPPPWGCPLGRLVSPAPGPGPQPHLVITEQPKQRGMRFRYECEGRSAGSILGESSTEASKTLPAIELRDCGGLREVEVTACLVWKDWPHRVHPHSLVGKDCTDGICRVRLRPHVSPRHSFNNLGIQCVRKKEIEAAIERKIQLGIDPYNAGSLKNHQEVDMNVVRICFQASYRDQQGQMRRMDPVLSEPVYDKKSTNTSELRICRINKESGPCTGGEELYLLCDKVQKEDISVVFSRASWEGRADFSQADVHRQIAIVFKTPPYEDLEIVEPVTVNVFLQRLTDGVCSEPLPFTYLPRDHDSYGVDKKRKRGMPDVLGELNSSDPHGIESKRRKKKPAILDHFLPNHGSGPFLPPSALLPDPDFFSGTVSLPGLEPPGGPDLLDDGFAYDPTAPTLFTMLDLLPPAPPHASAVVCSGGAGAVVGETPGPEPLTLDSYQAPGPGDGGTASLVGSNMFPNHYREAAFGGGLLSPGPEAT
The experiment in a line: cross-linking + co-IP; HEK293T co-transfected; cells cross-linked with 1% para-formaldehyde 10 min, lysed in 1% SDS, sonicated, diluted to 0.1% SDS with IGEPAL buffer; anti-myc agarose beads 4 h; immunoblotting. On the technique in general: In western blotting, separated proteins are transferred to a membrane and probed.
As for “epitope-tagged SMAD2 (from UniProt Q15796 1-467)”, the binding entry is “binds”.
To “epitope-tagged SMAD3 (from UniProt P84022 1-425)” belongs “binds”; to “epitope-tagged SMAD4 (from UniProt Q13485 1-552)”, “binds”.
